The target of experiment [1] is T1, Uridine-Cytidine Kinase Like 1 (UCKL1) (human (endogenous in human cardiac fibroblasts)) (UniProt Q9NWZ5).
T1 sequence: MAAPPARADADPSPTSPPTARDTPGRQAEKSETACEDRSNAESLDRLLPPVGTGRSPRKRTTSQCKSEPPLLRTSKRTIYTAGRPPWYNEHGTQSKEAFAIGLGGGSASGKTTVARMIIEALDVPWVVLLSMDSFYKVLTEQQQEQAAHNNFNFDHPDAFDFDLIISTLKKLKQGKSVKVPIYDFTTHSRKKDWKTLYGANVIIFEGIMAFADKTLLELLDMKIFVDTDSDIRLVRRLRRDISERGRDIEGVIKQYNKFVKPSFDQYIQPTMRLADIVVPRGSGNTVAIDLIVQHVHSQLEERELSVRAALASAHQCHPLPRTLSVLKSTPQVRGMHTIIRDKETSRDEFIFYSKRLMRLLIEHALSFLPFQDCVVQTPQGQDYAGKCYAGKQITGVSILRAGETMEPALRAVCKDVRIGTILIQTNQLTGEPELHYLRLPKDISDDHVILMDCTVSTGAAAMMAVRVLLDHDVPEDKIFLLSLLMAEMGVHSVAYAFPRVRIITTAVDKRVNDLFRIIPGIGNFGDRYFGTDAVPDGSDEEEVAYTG
In words: co-IP; endogenous proteins in human cardiac fibroblast lysates (RIPA buffer); primary antibody overnight at 4 °C, protein G Sepharose beads, PBS washes, immunoblot; also after TGF-β treatment of the cells. Background: Immunoblotting shows a protein as a band on a membrane.

Amino acid sequences for entries named in this document (tags omitted).
UniProt P19474: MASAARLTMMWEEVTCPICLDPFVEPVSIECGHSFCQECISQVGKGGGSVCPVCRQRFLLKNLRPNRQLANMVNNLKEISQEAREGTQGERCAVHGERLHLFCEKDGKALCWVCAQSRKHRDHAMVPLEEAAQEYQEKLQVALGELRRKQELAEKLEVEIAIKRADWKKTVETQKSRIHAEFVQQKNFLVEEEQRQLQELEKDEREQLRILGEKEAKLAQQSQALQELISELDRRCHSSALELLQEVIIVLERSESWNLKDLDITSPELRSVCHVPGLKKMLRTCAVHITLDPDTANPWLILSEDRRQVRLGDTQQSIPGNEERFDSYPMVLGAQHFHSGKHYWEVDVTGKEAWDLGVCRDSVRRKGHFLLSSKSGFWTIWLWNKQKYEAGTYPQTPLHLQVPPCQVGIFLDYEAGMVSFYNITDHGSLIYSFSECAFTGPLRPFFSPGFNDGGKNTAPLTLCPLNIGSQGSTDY

Experiment [2] deals with Tripartite Motif Containing 21 (TRIM21) (human (endogenous in human cardiac fibroblasts)) (UniProt P19474). The experiment is described as above.
In another experiment the target is T2, Flag-UCKL1 (UniProt Q9NWZ5).
T2 sequence: T1 sequence
Briefly: co-IP; lysates of 293 T cells transfected with Flag-UCK2 and Flag-UCKL1 plasmids; primary antibody overnight at 4 °C, protein G Sepharose beads, PBS washes, immunoblot.

The target of experiment [3] is T3, Uridine-Cytidine Kinase Like 1 (UCKL1) of mouse heart tissue (mouse (endogenous in heart tissue)) (UniProt Q91YL3).
T3 sequence: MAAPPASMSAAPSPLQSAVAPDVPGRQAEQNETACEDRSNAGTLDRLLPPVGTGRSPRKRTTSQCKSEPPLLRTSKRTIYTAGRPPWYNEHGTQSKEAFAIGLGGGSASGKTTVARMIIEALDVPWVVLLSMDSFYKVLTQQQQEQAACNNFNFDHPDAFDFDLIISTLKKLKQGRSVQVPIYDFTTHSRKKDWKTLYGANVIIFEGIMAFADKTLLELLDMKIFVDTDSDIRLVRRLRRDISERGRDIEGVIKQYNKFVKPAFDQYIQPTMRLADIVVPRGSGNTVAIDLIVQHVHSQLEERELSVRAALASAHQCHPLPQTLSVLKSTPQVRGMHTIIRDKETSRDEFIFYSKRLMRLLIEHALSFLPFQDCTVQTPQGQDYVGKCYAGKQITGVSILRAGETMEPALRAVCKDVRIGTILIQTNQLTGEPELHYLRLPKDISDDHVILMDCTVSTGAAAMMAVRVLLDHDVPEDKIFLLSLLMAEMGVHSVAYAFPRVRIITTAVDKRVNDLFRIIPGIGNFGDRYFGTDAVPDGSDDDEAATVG
Briefly: co-IP; endogenous proteins in mouse heart tissue lysates (RIPA buffer); primary antibody overnight at 4 °C, protein G Sepharose beads, PBS washes, immunoblot; also after myocardial infarction (infarct and border zones).

Substitutions are numbered along the chain they refer to. Results are given in words; binding and its absence hold for the method and conditions named. Binding seen in cells or lysates may run through a third protein. Some binding calls cover weakened binding; strength is not graded here. For some assays here: Tags and fused reporters may be left off the sequences shown.

B1: Uridine-Cytidine Kinase 2 (UCK2) (protein, UniProt Q9BZX2 1-261)
chain: MAGDSEQTLQNHQQPNGGEPFLIGVSGGTASGKSSVCAKIVQLLGQNEVDYRQKQVVILSQDSFYRVLTSEQKAKALKGQFNFDHPDAFDNELILKTLKEITEGKTVQIPVYDFVSHSRKEETVTVYPADVVLFEGILAFYSQEVRDLFQMKLFVDTDADTRLSRRVLRDISERGRDLEQILSQYITFVKPAFEEFCLPTKKYADVIIPRGADNLVAINLIVQHIQDILNGGPSKRQTNGCLNGYTPSRKRQASESSSRPH
As to B1, the binding entry in experiment [1] and in experiment [2] was “binds” each time.

B2: Flag-UCK2 (protein, UniProt Q9BZX2 1-261)
chain: B1 chain
Regarding B2, in the experiment with Flag-UCKL1, the binding entry is given as “binds”.

B3: Uridine-Cytidine Kinase 2 (UCK2) of mouse heart tissue (protein, UniProt Q99PM9 1-261)
chain: B1 chain with R52H, L95F, V126I, P233L, C241Y
Turning to B3, the binding result in experiment [3] is listed as “binds”.

B4: Uridine-Cytidine Kinase Like 1 (UCKL1) (protein, UniProt Q9NWZ5 1-548)
chain: T1 sequence
As for B4, in experiment [2], the binding entry is listed as “binds”.

The values above are taken from article PMC12745349.
